Tested on: human FGFR2 IIIb
Assay: Epitope identification by flow cytometry with Ig-like domain-deficient FGFR2 IIIb mutants
Type: binding
Conditions: IgD1-, IgD2-, IgD3-deletion mutants of FGFR2 IIIb on HEK293T

Molecule	epitope (Ig-like domain bound)
FR2-10: anti-human FGFR2 rat monoclonal antibody obtained by the method described in Example 1; VH SEQ ID NO: 12, VL SEQ ID NO: 21 (antibody, listed as Rattus norvegicus, V domains shown) VH: EVQLVESGGGLVQPGRSLKLSCVASGFRFNDFWMTWIRQAPGKGLEWVASITYTGDNTYYAGSVKGRITISRDNAKSTLYLQMNSLRSEDTATYYCTRDDYGGYSPYYMDAWGQGTSVTVSS VL: DIQMTQSPSSLSAFLGDRVTITCRASQDIGNYLRWFQQKPGKSPRLMIYGATNLANGVPSRFSGSRSGSDYSLTINNLESEDMAIYYCLKHNEYPFTFGSGTKLEIKRA	bind to the Ig-like domain 3 of human FGFR2 IIIb
FR2-13: anti-human FGFR2 rat monoclonal antibody obtained by the method described in Example 1; VH SEQ ID NO: 14, VL SEQ ID NO: 24 (antibody, listed as Rattus norvegicus, V domains shown) VH: QVKLLQSGAELVKPGASVKLSCKTSGFTFSTSYMSWLKQVPGPSIEWIGWIYAGDGGTKYNQKFKGKATLTVDKSSSTAYMDLSSLTSEDAAVYFCATDGYGDWFAYWGQGTLVTVSS VL: DIQMTQSPASLSASLGETVTIECRASEDIYSNLAWYQQKPGNSPQLLIYDANILADGVPSRFSGSGSGTQYSLKINSLQSEDVASYFCQQYNNYPPFTFGVGTKLELKRA	bind to the common Ig-like domain 2 of human FGFR2 IIIb and FGFR2 IIIc
FR2-14: anti-human FGFR2 rat monoclonal antibody obtained by the method described in Example 1; VH SEQ ID NO: 16, VL SEQ ID NO: 26 (antibody, listed as Rattus norvegicus, V domains shown) VH: QVKLLQSGAELVKPGASVKLSCKTSGFTFSTSYMSWLKQVPGPSTEWIGWIYAGDGGTKYNQKFKGKATLTVDKFSSTAYMDLSSLTSEDAAVYFCATDGYGDWFTYWGQGTLVTVSS VL: DIQMTQSPASLSASLGETVTIECRASEDIYSNLAWYQQKPGNSPQLLIYDANILADGVPSRFSGSGSGTQYSLKINSLQSEDVASYFCQQYNNYPPFTFGAGTKLELKRA	bind to the common Ig-like domain 2 of human FGFR2 IIIb and FGFR2 IIIc
